# Assay results taken from PubChem BioAssay (NCATS).
# Inconclusive results, whose numbers are uncertain, are shown with a selection of clear calls. Where the call is inconclusive, the potency comes from a doubtful curve fit. Active and inactive are the calls of the source. The call rests on the fitted dose curve; in most records, active means well fitted inhibition curve with a large enough effect; inconclusive means small, poorly fitted or top-dose-only effect, or effect the other way; inactive means no such curve, though single readings can be large or run the other way.
# Assay: qHTS Assay for Inhibitors of Fructose-1,6-bisphosphate Aldolase from Giardia Lamblia: Giardia lamblia growth inhibition (AID 2785); further: nearly all actives have a fitted effect of over 70% in size
# Conditions: Giardia lamblia trophozoite growth inhibition; activity change, negative = inhibition: at 57.5 µM (top of the series)
# How it was run: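 G. lamblia WB trophozoites (100 cells/well) were grown with compound at 37C for 48 h in modified TYI-S-33 medium, pH 7.0. Growth was measured by ATPlite luminescence after 20 min at room temperature.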
# On the % scale 0 is the no-effect control and ±100 the full control effect; potency means the concentration at half of the fitted maximal effect.
Compound,Potency,"activity change, negative = inhibition"
Cc1ccc(CN2CCC(N3CC(C)OC(C)C3)CC2)cc1 (stereo not given),"inconclusive: 63.1 µM [inhibitor, single point]",
CSCCC(=O)Nc1nc(-c2ccccn2)cs1,active: 14.1 µM,
O=C(NCSc1ccncn1)c1ccccc1,,inactive: 7.73% [at 10.4 µM]
CCOC(=O)C1CCCN(CCC(=O)Nc2ccc(Br)c(C)c2)C1 (stereo not given),"inconclusive: 50.1 µM [inhibitor, single point]",
CCN(CC)CC(=O)Nc1cc(N(C)C)nc2ccccc12,"inconclusive: 56.2 µM [inhibitor, partial curve, poor fit]",
NC(=S)NNc1ccc(Cl)c(Cl)c1,,inactive: 13.2%
N#C/C(=N\Nc1ccccc1)C(N)=S,"inconclusive: 5.62 µM [inhibitor, partial curve, poor fit]",
O=C(C1=C(O)C(=O)N(c2nccs2)C1c1ccccc1)c1cc2ccccc2o1 (stereo not given),,inactive: -29.5%
O=C(O)CSc1c(O)c2ccccc2[nH]c1=O,"inconclusive: 70.8 µM [inhibitor, single point]",
CCNC(=S)NS(=O)(=O)c1ccc(Cl)cc1,,inactive: 25.1%
CN(CCOc1ccccc1)CC(=O)Nc1ccc(S(=O)(=O)N2CCCC2)cc1,"inconclusive: 63.1 µM [inhibitor, partial curve]",
Cc1ccc(Nc2cc(C)nn2-c2nc(C)cc(=O)[nH]2)cc1,"inconclusive: 11.3 µM [inhibitor, partial curve]",
O=C(Nn1cc(C(=O)Nc2ccc(F)cc2F)c2ccccc2c1=O)c1cnccn1,"inconclusive: 15.8 µM [inhibitor, single point]",
O=C(CN1CCOCC1)N1CCCc2ccccc21,,inconclusive: 34.5% [activator]
O=C(CN1CCOCC1)Nc1c2c(nc3ccccc13)N(Cc1ccccc1)CC2,,inconclusive: 80.6% [activator]
O=C(C1=NN[C@@H]2C(=O)N(c3cccc(F)c3)C(=O)[C@H]12)c1cnccn1,"inconclusive: 158 µM [inhibitor, partial curve, poor fit]",
CCC(C)c1ccccc1NC(=O)C(C)N(C)Cc1cccc(OC)c1 (stereo not given),"inconclusive: 7.08 µM [inhibitor, single point]",
Cc1cc(NC(=O)CN(C)CCOc2ccccc2)ccc1Br,,inconclusive: 34.5% [activator]

# Individual results from the results shown.
# CN(CCOc1ccccc1)CC(=O)Nc1ccc(S(=O)(=O)N2CCCC2)cc1 – Potency: inconclusive: 63.1 µM [inhibitor, partial curve]
# O=C(CN1CCOCC1)N1CCCc2ccccc21 – activity change, negative = inhibition: inconclusive: 34.5% [activator]

# Carrying on.

Compound,Potency,"activity change, negative = inhibition"
Cc1ccc(C(=S)N2CCN(Cc3ccccc3)CC2)cc1,"inconclusive: 31.6 µM [inhibitor, single point]",
COCCNC(=S)NNc1ccc(Cl)c(C(=O)O)c1,"inconclusive: 50.1 µM [inhibitor, partial curve, poor fit]",
CCC(C)NCCOc1ccc(C(C)(C)c2ccccc2)cc1 (stereo not given),"inconclusive: 17.8 µM [inhibitor, single point]",
O=C(N/N=C/c1cccnc1)c1cc(O)c(O)c(O)c1,"inconclusive: 79.4 µM [inhibitor, partial curve, poor fit]",
C=CCSc1n[nH]c(-c2cccs2)n1,,inactive: -21.7%
O=C(O)c1cc(-c2ccccn2)n[nH]1,,inactive: -9.27%
O=C1CSC(=S)N1,,inactive: -7.42% [at 38.3 µM]
O=c1c(=O)n(O)c2ccccc2n1O,,inconclusive: 56.9% [activator]
C=CCN(CC=C)CCOc1ccc(C)cc1[N+](=O)[O-],"inconclusive: 89.1 µM [inhibitor, single point]",
CCN(CC)S(=O)(=O)c1ccc(C(=O)NC(=S)N(CCC#N)Cc2cccnc2)cc1,,inconclusive: 77.5% [activator]
O=[N+]([O-])c1ccccc1/C=C/CN1CCSCC1,"inconclusive: 7.08 µM [inhibitor, single point]",
CCOc1ccc(OCCOCCN2CCCC2)cc1,"inconclusive: 50.1 µM [inhibitor, single point]",
COc1cc(/C=N/Nc2nc(=O)[nH]nc2C)cc([N+](=O)[O-])c1O,"inconclusive: 35.5 µM [inhibitor, single point]",
CN(C)C(=S)NC(=O)c1cccc(Cl)c1,active: 7.08 µM,
O=C(O)c1ccc(/C=N/Nc2ccc(Cl)nn2)cc1,"inconclusive: 1.26 µM [inhibitor, partial curve, poor fit]",
COc1ccc(Br)cc1CNc1ccccc1,"inconclusive: 39.8 µM [inhibitor, partial curve, poor fit]",
NC(=O)c1ccc(/C=N/O)nc1,"inconclusive: 8.91 µM [inhibitor, single point]",
